Measured values reported in publication PMC9250212.
No constants are given. Whether binding was seen depends on the method and setting. Binding seen in cells or lysates may run through a third protein. Some entries that bind do so weakly or less than the wild type.

The chains behind the UniProt entries cited, without tags or fusion partners.
UniProt Q14258: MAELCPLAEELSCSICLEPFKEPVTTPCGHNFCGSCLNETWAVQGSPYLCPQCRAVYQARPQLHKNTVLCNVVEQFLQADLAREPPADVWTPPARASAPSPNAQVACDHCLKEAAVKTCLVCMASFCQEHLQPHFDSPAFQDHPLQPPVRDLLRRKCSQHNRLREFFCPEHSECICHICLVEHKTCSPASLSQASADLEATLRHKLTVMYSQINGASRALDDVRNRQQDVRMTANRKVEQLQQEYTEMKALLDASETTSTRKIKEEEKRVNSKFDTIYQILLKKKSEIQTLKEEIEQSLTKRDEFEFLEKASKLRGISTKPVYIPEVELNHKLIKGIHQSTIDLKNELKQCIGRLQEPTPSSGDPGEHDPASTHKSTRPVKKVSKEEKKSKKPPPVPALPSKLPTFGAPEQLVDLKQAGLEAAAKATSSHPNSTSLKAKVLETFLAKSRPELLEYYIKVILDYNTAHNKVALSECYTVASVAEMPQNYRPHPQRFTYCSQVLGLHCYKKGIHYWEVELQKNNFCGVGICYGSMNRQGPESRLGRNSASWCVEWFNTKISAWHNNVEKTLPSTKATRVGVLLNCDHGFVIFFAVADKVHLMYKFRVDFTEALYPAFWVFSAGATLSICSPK

Molecular target: T1, δ-catenin (catenin delta 1) (human (endogenous in human gastric cancer cell lines)) (UniProt O60716)
T1 sequence: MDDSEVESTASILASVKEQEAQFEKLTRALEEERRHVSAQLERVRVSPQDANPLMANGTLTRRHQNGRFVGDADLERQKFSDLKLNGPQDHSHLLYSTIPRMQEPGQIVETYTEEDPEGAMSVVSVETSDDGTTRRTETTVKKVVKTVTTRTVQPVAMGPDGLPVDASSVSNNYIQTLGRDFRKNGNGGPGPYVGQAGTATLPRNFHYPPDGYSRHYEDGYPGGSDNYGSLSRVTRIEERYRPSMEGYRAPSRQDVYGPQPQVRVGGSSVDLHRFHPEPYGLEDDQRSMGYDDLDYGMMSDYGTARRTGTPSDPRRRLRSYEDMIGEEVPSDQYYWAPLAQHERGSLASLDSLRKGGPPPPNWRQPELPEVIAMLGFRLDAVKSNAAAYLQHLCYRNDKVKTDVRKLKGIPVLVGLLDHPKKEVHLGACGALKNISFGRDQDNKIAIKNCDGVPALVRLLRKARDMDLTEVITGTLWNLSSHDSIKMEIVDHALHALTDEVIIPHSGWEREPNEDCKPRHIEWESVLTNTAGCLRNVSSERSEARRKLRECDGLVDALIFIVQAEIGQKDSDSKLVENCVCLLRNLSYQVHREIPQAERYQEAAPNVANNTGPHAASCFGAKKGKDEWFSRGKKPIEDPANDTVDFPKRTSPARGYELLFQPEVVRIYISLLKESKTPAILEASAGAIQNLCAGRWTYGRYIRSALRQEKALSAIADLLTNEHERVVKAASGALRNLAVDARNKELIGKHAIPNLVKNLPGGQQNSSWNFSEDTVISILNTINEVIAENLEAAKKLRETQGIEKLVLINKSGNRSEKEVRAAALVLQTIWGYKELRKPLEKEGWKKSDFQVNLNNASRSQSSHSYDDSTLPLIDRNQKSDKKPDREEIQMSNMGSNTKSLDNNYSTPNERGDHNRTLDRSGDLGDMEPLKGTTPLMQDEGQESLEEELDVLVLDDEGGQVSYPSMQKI
Test: co-IP; GC cells lysed in Pierce immunoprecipitation lysis buffer with proteinase, phosphatase and RNase inhibitors; beads at 4 °C overnight, washed three times, western blot; done in GC cells alone and in GC cells transfected with circEIF4G3 overexpressing plasmid (association enhanced)

binding: binds
Substance: TRIM25 (Tripartite motif 25) (from UniProt Q14258 1-630)
